According to the supplement of paper PMC6078165:
Values are relative to the signal before dosing, not to a vehicle control; the signal also falls without drug.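 Labels refer to human fibroblasts, largely primary: uterine (C12385, HUF), lung (H6013), bone (Hs27A), adrenal (HADF), skin (WS1), plus mammary HMF and breast cancer-associated Hs343T. Cancer lines are basal-like or mesenchymal-like triple-negative breast cancer. The paper counts as hits responses shifting over 3x the replicate standard deviation. The tissue of the other fibroblasts is not given here.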

Tested on: MDAMB468
Test: relative JC-1 red fluorescence (viability) vs pre-drug, coculture with fibroblast (fraction); higher = more viable cancer cells
Method: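 JC-1 labelled TNBC cells cocultured 1:1 (1,500 cells each) with CellTrace Violet stained primary or stromal fibroblasts in 384-well plates in FluoroBrite medium, treated with one of 42 anticancer drugs at 0.1, 1, 10 or 100 uM. JC-1 red fluorescence (mitochondrial integrity in cancer cells only) was read by plate reader every 8 h for 72 h. Values are normalised to each well's pre-drug value. The stock of one drug was tenfold lower, so its dose labels may be too high.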

CCN(CC)CCNC(=O)c1c(C)[nH]c(/C=C2\C(=O)Nc3ccc(F)cc32)c1C [Sunitinib]
relative JC-1 red fluorescence
Details	8 h	16 h	24 h	32 h	40 h	48 h	56 h	64 h	72 h
0.1 µM, coculture fibroblast: C12385	0.829	0.842	0.848	0.8205	0.797	0.809	0.786	0.792	0.795
0.1 µM, coculture fibroblast: H6013	0.867	0.874	0.846	0.842	0.828	0.846	0.8327	0.8353	0.787
0.1 µM, coculture fibroblast: H6019	0.816	0.7945	0.7686	0.7093	0.6791	0.6755	0.627	0.592	0.57
0.1 µM, coculture fibroblast: H6076	0.891	0.9285	0.8936	0.893	0.8286	0.8351	0.809	0.797	0.835
0.1 µM, coculture fibroblast: H6231	0.815	0.879	0.781	0.769	0.724	0.708	0.6713	0.654	0.654
0.1 µM, coculture fibroblast: HADF	0.87	0.8659	0.8186	0.811	0.779	0.776	0.743	0.739	0.697
0.1 µM, coculture fibroblast: HCFa	0.858	0.831	0.773	0.736	0.681	0.679	0.637	0.6	0.564
0.1 µM, coculture fibroblast: HCPF	0.84708	0.9371	0.861	0.851	0.795	0.763	0.722	0.713	0.698
0.1 µM, coculture fibroblast: HHSteC	0.889	0.887	0.8397	0.8018	0.7757	0.78	0.719	0.701	0.645
0.1 µM, coculture fibroblast: HMF	0.82	0.932	0.866	0.844	0.7897	0.772	0.7245	0.7038	0.691
0.1 µM, coculture fibroblast: HPFa	0.907	0.8704	0.839	0.779	0.7594	0.7551	0.699	0.683	0.603
0.1 µM, coculture fibroblast: HUF	0.866	0.804	0.764	0.705	0.666	0.654	0.615	0.603	0.595
0.1 µM, coculture fibroblast: Hs5	0.921	0.921	0.895	0.867	0.802	0.783	0.754	0.728	0.7527
0.1 µM, coculture fibroblast: Hs27A	0.8406	0.849	0.7933	0.797	0.7408	0.7419	0.706	0.69	0.641
0.1 µM, coculture fibroblast: Hs343T	0.882	0.968	0.924	0.907	0.837	0.82	0.772	0.753	0.74
0.1 µM, coculture fibroblast: WS1	0.806	0.759	0.721	0.657	0.611	0.591	0.569	0.553	0.545
1 µM, coculture fibroblast: C12385	0.861	0.814	0.798	0.756	0.7044	0.7	0.659	0.6432	0.6408
1 µM, coculture fibroblast: H6013	0.852	0.867	0.839	0.841	0.832	0.847	0.833	0.825	0.776
1 µM, coculture fibroblast: H6019	0.815	0.804	0.773	0.734	0.69	0.675	0.624	0.585	0.563
1 µM, coculture fibroblast: H6076	0.8969	0.934	0.884	0.874	0.801	0.793	0.759	0.738	0.752
1 µM, coculture fibroblast: H6231	0.824	0.91	0.853	0.823	0.767	0.741	0.6916	0.65693	0.638
1 µM, coculture fibroblast: HADF	0.899	0.852	0.7979	0.7892	0.748	0.739	0.704	0.693	0.655
1 µM, coculture fibroblast: HCFa	0.856	0.865	0.83	0.811	0.776	0.774	0.723	0.691	0.64
1 µM, coculture fibroblast: HCPF	0.828	0.912	0.876	0.866	0.792	0.758	0.707	0.691	0.669
1 µM, coculture fibroblast: HHSteC	0.889	0.873	0.844	0.813	0.795	0.794	0.748	0.722	0.674
1 µM, coculture fibroblast: HMF	0.845	0.9331	0.875	0.85575	0.789	0.783	0.7325	0.715	0.691
1 µM, coculture fibroblast: HPFa	0.913	0.8795	0.8653	0.8268	0.828	0.823	0.769	0.747	0.669
1 µM, coculture fibroblast: HUF	0.872	0.81	0.7802	0.7187	0.681	0.663	0.615	0.597	0.577
1 µM, coculture fibroblast: Hs5	0.967	0.93	0.878	0.853	0.788	0.754	0.718	0.691	0.684
1 µM, coculture fibroblast: Hs27A	0.882	0.863	0.797	0.798	0.762	0.758	0.717	0.692	0.644
1 µM, coculture fibroblast: Hs343T	0.864	0.916	0.881	0.865	0.794	0.782	0.74	0.716	0.69
1 µM, coculture fibroblast: WS1	0.818	0.761	0.741	0.679	0.641	0.617	0.597	0.57	0.566
10 µM, coculture fibroblast: C12385	0.824	0.704	0.677	0.633	0.583	0.571	0.517	0.47	0.431
10 µM, coculture fibroblast: H6013	0.8977	0.743	0.654	0.507	0.404	0.369	0.331	0.308	0.246
10 µM, coculture fibroblast: H6019	0.841	0.73	0.67	0.568	0.501	0.454	0.399	0.36	0.335
10 µM, coculture fibroblast: H6076	0.975	0.743	0.585	0.495	0.382	0.344	0.293	0.271	0.267
10 µM, coculture fibroblast: H6231	0.8354	0.6583	0.419	0.366	0.268	0.237	0.2	0.165	0.159
10 µM, coculture fibroblast: HADF	0.881	0.836	0.687	0.487	0.395	0.363	0.313	0.289	0.219
10 µM, coculture fibroblast: HCFa	0.9115	0.8957	0.838	0.833	0.748	0.701	0.6	0.553	0.486
10 µM, coculture fibroblast: HCPF	0.8301	0.973	0.729	0.541	0.364	0.311	0.26	0.235	0.222
10 µM, coculture fibroblast: HHSteC	0.9363	0.753	0.702	0.531	0.378	0.345	0.296	0.266	0.212
10 µM, coculture fibroblast: HMF	0.852	0.927	0.764	0.615	0.424	0.369	0.292	0.257	0.243
10 µM, coculture fibroblast: HPFa	0.948	0.828	0.759	0.656	0.533	0.506	0.418	0.384	0.296
10 µM, coculture fibroblast: HUF	0.8692	0.674	0.575	0.402	0.308	0.275	0.221	0.196	0.171
10 µM, coculture fibroblast: Hs5	0.841	0.7632	0.638	0.52	0.368	0.317	0.2731	0.239	0.2289
10 µM, coculture fibroblast: Hs27A	0.92	0.869	0.767	0.679	0.486	0.418	0.363	0.33	0.257
10 µM, coculture fibroblast: Hs343T	0.922	0.747	0.5232	0.437	0.313	0.272	0.229	0.2	0.1823
10 µM, coculture fibroblast: WS1	0.827	0.74868	0.564	0.364	0.288	0.246	0.216	0.184	0.166
100 µM, coculture fibroblast: C12385	0.634	0.291	0.255	0.223	0.196	0.2	0.169	0.146	0.134
100 µM, coculture fibroblast: H6013	0.33	0.252	0.229	0.2054	0.19	0.189	0.155	0.14	0.105
100 µM, coculture fibroblast: H6019	0.453	0.306	0.272	0.255	0.231	0.252	0.235	0.23	0.226
100 µM, coculture fibroblast: H6076	0.403	0.275	0.261	0.283	0.234	0.238	0.207	0.195	0.223
100 µM, coculture fibroblast: H6231	0.425	0.257	0.261	0.305	0.295	0.318	0.319	0.325	0.34
100 µM, coculture fibroblast: HADF	0.31	0.225	0.196	0.177	0.163	0.163	0.129	0.113	0.0827
100 µM, coculture fibroblast: HCFa	0.51	0.283	0.244	0.215	0.206	0.208	0.172	0.144	0.113
100 µM, coculture fibroblast: HCPF	0.513	0.369	0.327	0.353	0.291	0.275	0.234	0.23	0.218
100 µM, coculture fibroblast: HHSteC	0.386	0.291	0.265	0.232	0.217	0.219	0.183	0.159	0.123
100 µM, coculture fibroblast: HMF	0.38	0.292	0.265	0.279	0.23	0.239	0.215	0.216	0.207
100 µM, coculture fibroblast: HPFa	0.78	0.325	0.273	0.227	0.222	0.225	0.201	0.185	0.143
100 µM, coculture fibroblast: HUF	0.532	0.244	0.202	0.163	0.14	0.136	0.104	0.0951	0.0886
100 µM, coculture fibroblast: Hs5	0.415	0.237	0.222	0.216	0.172	0.16	0.141	0.123	0.14
100 µM, coculture fibroblast: Hs27A	0.355	0.237	0.198	0.181	0.172	0.178	0.152	0.14	0.122
100 µM, coculture fibroblast: Hs343T	0.375	0.285	0.278	0.289	0.243	0.246	0.23	0.234	0.225
100 µM, coculture fibroblast: WS1	0.347	0.231	0.208	0.183	0.159	0.159	0.137	0.124	0.12
